Source: paper PMC10251476
Results are given in words; binding and its absence hold for the method and conditions named. In cells and extracts the contact can be indirect. Some results given as binding are weak or reduced against the parent protein; the word gives no strength.

The chains behind the UniProt entries cited, without tags or fusion partners. Where a name states a change or a piece, a line headed by the entry shows the natural chain unless it says otherwise. Residues count along the entry.
UniProt Q99720, residues 2-223: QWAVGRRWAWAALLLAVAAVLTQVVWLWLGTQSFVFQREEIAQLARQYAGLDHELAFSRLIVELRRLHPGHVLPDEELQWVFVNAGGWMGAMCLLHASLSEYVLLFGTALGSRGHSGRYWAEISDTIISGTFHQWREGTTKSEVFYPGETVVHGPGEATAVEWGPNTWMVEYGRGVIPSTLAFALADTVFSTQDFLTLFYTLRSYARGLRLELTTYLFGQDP
UniProt P11021, residues 19-653: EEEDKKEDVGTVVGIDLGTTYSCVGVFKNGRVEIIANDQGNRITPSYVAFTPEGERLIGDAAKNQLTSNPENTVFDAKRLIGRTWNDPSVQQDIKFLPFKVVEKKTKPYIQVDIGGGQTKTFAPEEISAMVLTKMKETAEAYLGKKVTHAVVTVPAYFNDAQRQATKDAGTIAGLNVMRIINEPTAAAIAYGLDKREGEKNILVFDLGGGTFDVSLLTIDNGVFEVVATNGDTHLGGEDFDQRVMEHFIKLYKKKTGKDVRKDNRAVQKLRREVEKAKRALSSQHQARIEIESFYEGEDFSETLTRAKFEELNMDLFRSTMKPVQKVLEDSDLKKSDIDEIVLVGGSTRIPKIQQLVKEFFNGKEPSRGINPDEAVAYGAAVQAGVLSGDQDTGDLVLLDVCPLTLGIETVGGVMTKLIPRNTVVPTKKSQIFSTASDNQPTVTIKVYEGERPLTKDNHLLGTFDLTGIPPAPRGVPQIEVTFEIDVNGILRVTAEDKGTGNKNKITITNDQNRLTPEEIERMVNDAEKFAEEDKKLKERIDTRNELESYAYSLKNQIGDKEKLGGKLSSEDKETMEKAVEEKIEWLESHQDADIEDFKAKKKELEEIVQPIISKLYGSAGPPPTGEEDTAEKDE

Target: human S1R fused to the large split fragment of nanoluciferase (S1R^LgBiT) (human) (UniProt Q99720)
Test: split reporter; NanoBiT in living HEK-293 S1R-KO cells stably expressing S1R-LgBiT and BiP-SmBiT; coelenterazine 400a, luminescence (RLU) on a CLARIOstar reader; cells treated with vehicle, S1R ligands (acute time course or 16 h) or BAPTA-AM (10 μM, 30 min)

Question: Which binding does the source give for “human BiP fused to the small split fragment of nanoluciferase (BiP^SmBiT) (from UniProt P11021 19-653)” here?
Answer: The binding was “binds”.
